From patent US6869785

Tests used:
[1] = target: cytochrome c oxidase core subunit II (CO II) of Gluconobacter oxydans DSM 4025 (Gluconobacter oxydans DSM 4025); assay: co-purified complex dissociated by preparative SDS-PAGE
[2] = target: cytochrome c oxidase core subunit II (CO II) of Gluconobacter oxydans DSM 4025 (Gluconobacter oxydans DSM 4025); assay: co-purification (DEAE, hydroxylapatite); single band on native PAGE, two bands on SDS-PAGE
[3] = target: cytochrome c oxidase core subunit II (CO II) of Gluconobacter oxydans DSM 4025 (Gluconobacter oxydans DSM 4025); assay: co-purification as one complex; dissociation by preparative SDS-PAGE

- binding [1]: binds
- binding [2]: binds
- binding [3]: binds
B1: cytochrome c oxidase core subunit I (CO I) of Gluconobacter oxydans DSM 4025 (enzyme)
chain: MADAAIHGHDHHEKQGFFTRWFMSTNHKDIGLLYLVAAGVVGFISVLFTVYMRLELMDPGVQYMCLEGARLIADASQTCTANGHLWNVMVTYHGILMMFFVGIPALFGGFGNYLMPLQIGAPDMAFPRMNNLSFWLFIAGTAMGVASLFAPGGDGQLGSGVGWVLYPPLSTREAGYSMDLAIFAVHLSGASSIMGAINMITTFLNMRAPGMTLHKVPLFSWSIFITAWLILLALPVLAGAITMLLTDRNFGTTFFNPAGGGDPILYQHILWFFGHPEVYIIILPGFGIISHVVSTFSKKPVFGYLPMVYAMVAIGVLGFVVWAHHMYTVGMSLTQQSYFMLATMVIAVPTGIKIFSWIATMWGGSVEFKSPMLWAFGFMFLFTVGGVTGIVLAQAGLDRAYHDTYYVVAHFHYVMSLGAIFAIFAGIYFYMPKFSGRAFPEWAAKLHFWTFFIGANVTFFPQHFLGRQGMPRRYIDYPEAFALWNKVSSYGAFLAFASFLFFIVIFVYTLVAGRRETRPNPWGEFADTLEWTLPSPPPAHTFETLPKRSDWDKHPSH
modifications: N-terminal alpha-amino residue blocked by unidentified modification

Results are given in words; binding and its absence hold for the method and conditions named. In cells and extracts the contact can be indirect. Binding calls can cover weak binding; strength is not graded here. Sequences can lack the tags named with a protein.
